Measured values: PubChem BioAssay AID493014 (National Center for Advancing Translational Sciences (NCATS), 2011)
The whole screen tested about 340,000 compounds, of which about 170 (0.05%) were called active. This list was built around the results that the source calls inconclusive (neither active nor inactive); the mix of calls is not that of the screen. Calls come from the whole dose curve; as a rule, active = well fitted inhibition curve with a large enough effect in the signal ratio, with a control signal flat (not every such curve was filed as active); inconclusive = small, poorly fitted or top-dose-only effect, or effect the other way, or a change in a side signal; inactive = flat fitted curve, though single readings scatter; the % refers to the signal ratio. Where the call is inconclusive, the potency comes from a doubtful curve fit.

experiment: qHTS Assay to Find Inhibitors of Chronic Active B-Cell Receptor Signaling; conditions: ABC-DLBCL IkBa-CBG/CBR reporter, luminescence ratio (green luciferase fused to IkBa over red control in TMD8 lymphoma cells), 4 h; activity change, negative = inhibition: at 46.1 µM (top of the series);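 for activity change, negative = inhibition: plate controls were basal doxycycline-induced cells for no effect and cells given 10 µM MG132 for full effect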
Procedure, shortened: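 TMD8 ABC-DLBCL cells carrying doxycycline-inducible green luciferase fused to IkappaBalpha plus unfused red luciferase were exposed to compounds (up to 46 uM) for 4 hrs at 37C. Activity came from the overlap-corrected green/red luminescence ratio.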
Potency is the fitted concentration of half-maximal effect.

Row | Compound | activity change, negative = inhibition | Potency
1 | CCN1CCN(c2ccc(S(=O)(=O)N3CCCCC3)cc2NC(=O)Cc2ccccc2F)CC1 | inactive | –
2 | CCOc1ccc(NC(=O)NNC(=O)c2cccnc2)cc1 | inactive | –
3 | CCOC(=O)C1=c2s/c(=C\c3ccncc3)c(=O)n2C(N)=C(C(=O)OC)C1c1ccncc1 (centres undefined) | inconclusive: -14.2% | –
4 | CCN(CC)S(=O)(=O)c1cccc(-c2nnc(SCc3nnc(-c4ccccc4)o3)n2C)c1 | inconclusive: -0.98% | –
5 | CC(C)N(C(=O)[C@H]1C[C@H](CC(=O)NCc2ccco2)C(=O)N2CCc3c([nH]c4cc(-c5ccco5)ccc34)[C@]12C)C(C)C | inconclusive: -2.1% | –
6 | O=S(=O)(Nc1ncccn1)c1ccc(NC(=S)Nc2cccc(Cl)c2)cc1 | – | inconclusive: 35.5 µM [rising, partial curve, poor fit]
7 | O=C(CCl)NCCCN(C(=O)C(Cl)Cl)c1ccc([N+](=O)[O-])cc1 | – | inconclusive: 35.5 µM [falling, partial curve, poor fit]
8 | CCCn1c(=O)c2[nH]cnc2n(-c2ccc(Cl)cc2)c1=O | inconclusive: -15.6% | –
9 | O=C(CN1CCCC1)Nc1ccc(OC(F)(F)F)cc1 | inactive | –
10 | Cc1c(O)ccc(C(=O)CN2C(=O)c3ccccc3C2=O)c1O | inconclusive: -15.8% | –
11 | COC(=O)c1sccc1NC(=S)N1CCCCC1 | inactive | –
12 | Cc1ccc(CNc2ncc(-c3ccccc3)n2C)o1 | – | inconclusive: 11.2 µM [falling, partial curve, poor fit]
13 | Cc1sc2nc(CSCC(=O)N3CC(C)OC(C)C3)[nH]c(=O)c2c1C (centres undefined) | inconclusive: -4.69% | –
14 | O=C(NCCc1csc(-c2ccccc2)n1)c1cccs1 | inactive | –
15 | COc1ccc(CNCC(O)(c2ccc(F)cc2)c2ccc(F)cc2)cc1 | inconclusive: -16.4% | –
16 | CCOC(=O)c1[nH]c2ccc(Br)cc2c1NC(=O)CNC | inconclusive: -17.7% | –
17 | COc1ccc(NC(=O)C2CC(c3ccc(OC)c(OC)c3)=NO2)cc1OC (centres undefined) | inactive | –
18 | Fc1ccc(C2CC(c3ccco3)n3ncnc3N2)cc1 (centres undefined) | inactive | –
19 | CC(=O)N1CCN(c2ccc([N+](=O)[O-])c(-n3nc(C)cc3C)c2)CC1 | inactive | –
20 | CC(c1ccccc1)N1CCN(C(=O)CCl)CC1 (centres undefined) | inconclusive: 0.821% | –
21 | CCOC(=O)N1CCN(C(=O)CSCC(=O)Nc2nc(-c3ccc4c(c3)OCO4)cs2)CC1 | inconclusive: 0.164% | –
22 | CCOc1ccccc1NC(=O)CN(c1ccc(C)cc1)S(=O)(=O)c1c(C)noc1C | inconclusive: 10.4% | –
23 | CC1SC(=NC(=O)c2ccncc2)NC1=O (centres undefined) | inactive | –
24 | Cc1c(CCO)c(=O)[nH]n1C(=O)c1ccc(F)cc1 | – | inconclusive: 0.141 µM [rising, full curve, poor fit]
25 | Cc1nc2cc(C(=O)OCC(=O)Nc3ccc(C#N)cc3)ccc2n1-c1ccccc1 | inconclusive: 5% | –
26 | CCCCc1ccc(-n2nnnc2SCC(=O)Nc2cc(OC)c([N+](=O)[O-])cc2C)cc1 | inconclusive: 0.878% | –
27 | CCOc1ccc(CCNS(=O)(=O)c2c(C)nc3scc(C)n3c2=O)cc1OCC | inconclusive: 0.838% | –

Two entries picked at random from those above, as already listed:
Row | Compound | activity change, negative = inhibition | Potency
14 | O=C(NCCc1csc(-c2ccccc2)n1)c1cccs1 | inactive | –
15 | COc1ccc(CNCC(O)(c2ccc(F)cc2)c2ccc(F)cc2)cc1 | inconclusive: -16.4% | –

Later entries.

Row | Compound | activity change, negative = inhibition | Potency
28 | O=C1C2C3C=CC(C3)C2C(=O)N1/N=C/c1cn(Cc2ccccc2)c2ccccc12 (centres undefined) | inconclusive: 12.6% | –
29 | O=C(/C=C/c1ccccc1[N+](=O)[O-])N1CCCCC1 | inactive | –
30 | O=C(Nc1cccnc1)c1ccc(Oc2ccccc2)cc1 | inactive | –
31 | COC(=O)c1ccccc1N=Nc1c(N)n[nH]c1N | – | inconclusive: 14.1 µM [falling, single point]
32 | CC(C)CCNC(=O)/C=C/c1ccc(Br)cc1 | inconclusive: -4.13% | –
33 | CCCCC(=O)Nc1ccc(C(=O)NNC(=O)c2ccco2)cc1 | inconclusive: 21.3% | –
34 | Cc1ccc(CSc2nnc(-c3cccc(S(=O)(=O)N4CCOCC4)c3)n2CC(C)C)cc1 | inconclusive: -6.94% | –
35 | CC(NC(=O)COC(=O)c1ccc(CO)cc1)C1CC2CCC1C2 (centres undefined) | inactive | –
36 | O=C(Cn1nnc(-c2ccccc2-n2cnnn2)n1)NCc1ccccc1 | inactive | –
37 | COCCOC(=O)C1=C(C)OC(N)=C(C#N)C1c1ccc2c(c1)OCO2 (centres undefined) | – | inconclusive: 18.4 µM [falling, single point]
38 | CCOC(=O)N1CCN(S(=O)(=O)c2ccc(C(=O)Nc3sc4c(c3C(N)=O)CC(C)(C)NC4(C)C)cc2)CC1 | inconclusive: -0.211% | –
39 | CCSc1cc(N2CCOCC2)nc(-c2ccccc2)n1 | inconclusive: -8.34% | –
40 | CC(C)(C)c1ccc(Cn2c(=O)cnc3ccccc32)cc1 | – | inconclusive: 22.4 µM [falling, single point]
41 | Cn1nnnc1SCCNCc1ccncc1 | inconclusive: 10.1% | –
42 | CC(=O)N1CCN(c2nc3ccc(Br)cc3s2)CC1 | inconclusive: -10.4% | –
43 | C=CCOC(=O)C1=C(C)NC(SCC(=O)N(CC)CC)=C(C#N)C1c1ccco1 (centres undefined) | inconclusive: 2.41% | –
44 | O=C(CCl)N(c1ccccc1)c1ccccc1 | inconclusive: -12.4% | –
45 | CCS(=O)(=O)N1Cc2ccccc2CC1C(=O)Nc1ccc(F)cc1 (centres undefined) | – | inconclusive: 6.31 µM [falling, partial curve]
46 | CC(C)OC(=O)c1cc(Cl)c(=O)n(Cc2ccc(Cl)cc2Cl)c1 | inactive | –
47 | Cn1c(/C(C#N)=C(\O)c2ccc([N+](=O)[O-])cc2)nc2ccccc21 | – | inconclusive: 0.447 µM [rising, full curve, poor fit]
48 | COc1ccc2c(c1)C(=NN)c1cc(OC)ccc1-2 | inactive | –
49 | O=C(c1ccccc1)c1c(O)nc(-c2ccccc2)n(-c2ccccc2)c1=O | – | inconclusive: 29.1 µM [rising, single point]
50 | c1ccc2nc(N3CCOCC3)cnc2c1 | inconclusive: -2.01% | –
51 | COc1cc(NC(=O)C(=O)NCCN(C)C)c(OC)cc1Cl | inconclusive: 0.115% | –
52 | CC(C)OCc1ccc(C(=O)N2CCN(CC(=O)N3CCCC3)CC2)cc1 | inconclusive: 1.58% | –
53 | N#Cc1ncc(C(F)(F)F)cc1Sc1ccccc1N | inconclusive: 4.98% | –
54 | O=C(Nc1ccc(Cl)cc1)Nc1ccc(-c2cnco2)cc1 | inconclusive: 10.6% | –
